Measured values from PMC5157023.
No constants are given. Whether binding was seen depends on the method and setting. In cells and extracts the contact can be indirect. These calls come from enrichment with a bait or labelling near it, and not all partners need be listed. Tags and fused reporters may be left off the sequences shown. Values belong to the binder of their own block, whether it stands above or below them.

Target: V5-tagged RE-1 silencing transcription factor (REST) (UniProt Q13127)
Assay: affinity purification with mass spectrometry; V5-tagged REST from transfected HEK293FT cells immunoisolated with anti-V5 antibody on agarose beads; lysis buffer 50 mM Tris-HCl pH 7.4, 150 mM NaCl, 5 mM EDTA, 0.2% TritonX-100, 15 U/ml DNAse I; in-solution digestion, triplicate LC-MS/MS, label-free quantification against control vector

B3: HnRNP R (protein, UniProt O43390 1-633)
chain: MANQVNGNAVQLKEEEEPMDTSSVTHTEHYKTLIEAGLPQKVAERLDEIFQTGLVAYVDLDERAIDALREFNEEGALSVLQQFKESDLSHVQNKSAFLCGVMKTYRQREKQGSKVQESTKGPDEAKIKALLERTGYTLDVTTGQRKYGGPPPDSVYSGVQPGIGTEVFVGKIPRDLYEDELVPLFEKAGPIWDLRLMMDPLSGQNRGYAFITFCGKEAAQEAVKLCDSYEIRPGKHLGVCISVANNRLFVGSIPKNKTKENILEEFSKVTEGLVDVILYHQPDDKKKNRGFCFLEYEDHKSAAQARRRLMSGKVKVWGNVVTVEWADPVEEPDPEVMAKVKVLFVRNLATTVTEEILEKSFSEFGKLERVKKLKDYAFVHFEDRGAAVKAMDEMNGKEIEGEEIEIVLAKPPDKKRKERQAARQASRSTAYEDYYYHPPPRMPPPIRGRGRGGGRGGYGYPPDYYGYEDYYDDYYGYDYHDYRGGYEDPYYGYDDGYAVRGRGGGRGGRGAPPPPRGRGAPPPRGRAGYSQRGAPLGPPRGSRGGRGGPAQQQRGRGSRGSRGNRGGNVGGKRKADGYNQPDSKRRQTNNQQNWGSQPIAQQPLQQGGDYSGNYGYNNDNQEFYQDTYGQQWK
binding: binds

B4: HnRNP L (protein, UniProt P14866 1-589)
chain: MSRRLLPRAEKRRRRLEQRQQPDEQRRRSGAMVKMAAAGGGGGGGRYYGGGSEGGRAPKRLKTDNAGDQHGGGGGGGGGAGAAGGGGGGENYDDPHKTPASPVVHIRGLIDGVVEADLVEALQEFGPISYVVVMPKKRQALVEFEDVLGACNAVNYAADNQIYIAGHPAFVNYSTSQKISRPGDSDDSRSVNSVLLFTILNPIYSITTDVLYTICNPCGPVQRIVIFRKNGVQAMVEFDSVQSAQRAKASLNGADIYSGCCTLKIEYAKPTRLNVFKNDQDTWDYTNPNLSGQGDPGSNPNKRQRQPPLLGDHPAEYGGPHGGYHSHYHDEGYGPPPPHYEGRRMGPPVGGHRRGPSRYGPQYGHPPPPPPPPEYGPHADSPVLMVYGLDQSKMNCDRVFNVFCLYGNVEKVKFMKSKPGAAMVEMADGYAVDRAITHLNNNFMFGQKLNVCVSKQPAIMPGQSYGLEDGSCSYKDFSESRNNRFSTPEQAAKNRIQHPSNVLHFFNAPLEVTEENFFEICDELGVKRPSSVKVFSGKSERSSSGLLEWESKSDALETLGFLNHYQMKNPNGPYPYTLKLCFSTAQHAS
binding: binds

Continued, values first:

binding: binds
B1: HnRNP A0 (protein, UniProt Q13151 1-305)
chain: MENSQLCKLFIGGLNVQTSESGLRGHFEAFGTLTDCVVVVNPQTKRSRCFGFVTYSNVEEADAAMAASPHAVDGNTVELKRAVSREDSARPGAHAKVKKLFVGGLKGDVAEGDLIEHFSQFGTVEKAEIIADKQSGKKRGFGFVYFQNHDAADKAAVVKFHPIQGHRVEVKKAVPKEDIYSGGGGGGSRSSRGGRGGRGRGGGRDQNGLSKGGGGGYNSYGGYGGGGGGGYNAYGGGGGGSSYGGSDYGNGFGGFGSYSQHQSSYGPMKSGGGGGGGGSSWGGRSNSGPYRGGYGGGGGYGGSSF

binding: binds
B2: HnRNP M (protein, UniProt P52272 1-730)
chain: MAAGVEAAAEVAATEIKMEEESGAPGVPSGNGAPGPKGEGERPAQNEKRKEKNIKRGGNRFEPYANPTKRYRAFITNIPFDVKWQSLKDLVKEKVGEVTYVELLMDAEGKSRGCAVVEFKMEESMKKAAEVLNKHSLSGRPLKVKEDPDGEHARRAMQKVMATTGGMGMGPGGPGMITIPPSILNNPNIPNEIIHALQAGRLGSTVFVANLDYKVGWKKLKEVFSMAGVVVRADILEDKDGKSRGIGTVTFEQSIEAVQAISMFNGQLLFDRPMHVKMDERALPKGDFFPPERPQQLPHGLGGIGMGLGPGGQPIDANHLNKGIGMGNIGPAGMGMEGIGFGINKMGGMEGPFGGGMENMGRFGSGMNMGRINEILSNALKRGEIIAKQGGGGGGGSVPGIERMGPGIDRLGGAGMERMGAGLGHGMDRVGSEIERMGLVMDRMGSVERMGSGIERMGPLGLDHMASSIERMGQTMERIGSGVERMGAGMGFGLERMAAPIDRVGQTIERMGSGVERMGPAIERMGLSMERMVPAGMGAGLERMGPVMDRMATGLERMGANNLERMGLERMGANSLERMGLERMGANSLERMGPAMGPALGAGIERMGLAMGGGGGASFDRAIEMERGNFGGSFAGSFGGAGGHAPGVARKACQIFVRNLPFDFTWKMLKDKFNECGHVLYADIKMENGKSKGCGVVKFESPEVAERACRMMNGMKLSGREIDVRIDRNA
